Results deposited as PubChem BioAssay AID1508597 (Cure First, 2020)
Screen: 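Genes whose silencing sensitises or protects ovarian cancer cells against rucaparib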 (primary screen). Cells: human ovarian carcinoma lines grown from tumours: OCI-P5x (papillary serous) and OCI-C5x (clear cell). Reagents: siRNA pool against human genes, 1.25 pmol siRNA per well. Duration: 72 h or 96 h, depending on the cell culture. Conditions: rucaparib 20 µM (about IC30) or vehicle, present until read-out. Rucaparib or vehicle: Rucaparib. Cell line: OCI-C5x (clear cell). Detection: 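ATP luminescence measured at 72 or 96 h according to the culture, then normalised and expressed as percent viability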. Reading the numbers: viability, normalised: higher = more viable cells remaining. Active means: 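Active when normalised viability falls below 80 percent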. Meaning of the calls: active = viability under 80%; inactive = viability 80% or more.
Shown is an unselected part of the about 2,100 reagents, under one of the conditions tested. 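Calls flag viability under 80% in either arm, not effects specific to rucaparib; the reference for percent is not stated.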 Not given: the 100% reference.

target gene | technical replicate | viability, normalised (%) | call
PRDM6 (PR/SET domain 6) | 1 | 61.2 | active
PRDM6 (PR/SET domain 6) | 2 | 43.3 | active
PRDM6 (PR/SET domain 6) | 3 | 46.5 | active
ELAC2 (elaC ribonuclease Z 2) | 1 | 55.3 | active
ELAC2 (elaC ribonuclease Z 2) | 2 | 59 | active
ELAC2 (elaC ribonuclease Z 2) | 3 | 41.8 | active
NPR1 (natriuretic peptide receptor 1) | 1 | 52.3 | active
NPR1 (natriuretic peptide receptor 1) | 2 | 66.6 | active
NPR1 (natriuretic peptide receptor 1) | 3 | 68.1 | active
CAMKK2 (calcium/calmodulin dependent protein kinase kinase 2) | 1 | 47.3 | active
CAMKK2 (calcium/calmodulin dependent protein kinase kinase 2) | 2 | 52.8 | active
CAMKK2 (calcium/calmodulin dependent protein kinase kinase 2) | 3 | 56.7 | active
EPHB1 (EPH receptor B1) | 1 | 50.6 | active
EPHB1 (EPH receptor B1) | 2 | 80.7 | inactive
EPHB1 (EPH receptor B1) | 3 | 61 | active
EEF2K (eukaryotic elongation factor 2 kinase) | 1 | 45.4 | active
EEF2K (eukaryotic elongation factor 2 kinase) | 2 | 64 | active
EEF2K (eukaryotic elongation factor 2 kinase) | 3 | 74 | active
MLH3 (mutL homolog 3) | 1 | 57.9 | active
MLH3 (mutL homolog 3) | 2 | 51.2 | active
MLH3 (mutL homolog 3) | 3 | 52.8 | active
BAZ2A (bromodomain adjacent to zinc finger domain 2A) | 1 | 28.2 | active
BAZ2A (bromodomain adjacent to zinc finger domain 2A) | 2 | 18.8 | active
BAZ2A (bromodomain adjacent to zinc finger domain 2A) | 3 | 13.3 | active

Reprinted from the listing, 4 entries:
target gene | technical replicate | viability, normalised (%) | call
MLH3 (mutL homolog 3) | 2 | 51.2 | active
MLH3 (mutL homolog 3) | 3 | 52.8 | active
BAZ2A (bromodomain adjacent to zinc finger domain 2A) | 1 | 28.2 | active
BAZ2A (bromodomain adjacent to zinc finger domain 2A) | 2 | 18.8 | active

The listing continues:
target gene | technical replicate | viability, normalised (%) | call
NCOA3 (nuclear receptor coactivator 3) | 1 | 61.8 | active
NCOA3 (nuclear receptor coactivator 3) | 2 | 32.2 | active
NCOA3 (nuclear receptor coactivator 3) | 3 | 38.7 | active
STK35 (serine/threonine kinase 35) | 1 | 49.2 | active
STK35 (serine/threonine kinase 35) | 2 | 56.6 | active
STK35 (serine/threonine kinase 35) | 3 | 41.3 | active
AK7 (adenylate kinase 7) | 1 | 65.6 | active
AK7 (adenylate kinase 7) | 2 | 74.2 | active
AK7 (adenylate kinase 7) | 3 | 50.9 | active
SHPRH (SNF2 histone linker PHD RING helicase) | 1 | 29.8 | active
SHPRH (SNF2 histone linker PHD RING helicase) | 2 | 37.3 | active
SHPRH (SNF2 histone linker PHD RING helicase) | 3 | 33.6 | active
PLK2 (polo like kinase 2) | 1 | 53.8 | active
PLK2 (polo like kinase 2) | 2 | 62.1 | active
PLK2 (polo like kinase 2) | 3 | 50.5 | active
